Test results: patent US10073084B2, “Predicting allergic reactions” (priority 2010, dated 2018)
At least one structure is not confirmed: it was looked up by name or label, or the drawing left a doubt.

How the values were obtained:
IFN-γ = IFN-γ levels in supernatant of drug treated FastDC co-cultured with autologous cells (FACs); assay type: cell-based, human; details: FIG. 9
autologous T cells = experiment: Modified T cell proliferation assay ([3H] thymidine), drug treated FastDC + autologous T cells; assay type: cell-based, human; details: FIG. 8 / FIG. 10; FastDC treated 24 hours, five days co-culture

CCC(C)(C)C(=O)O[C@H]1C[C@@H](C)C=C2C=C[C@H](C)[C@H](CC[C@@H]3C[C@@H](O)CC(=O)O3)[C@H]21 [SimV, Simvastatin]
levels of IFN-γ (in words) (IFN-γ): low
autologous T cell proliferation (level in words) (autologous T cells): low
